Measurements as given in article PMC3032679, “Designed hybrid TPR peptide targeting Hsp90 as a novel anticancer agent” (Journal of Translational Medicine, 2011).
These are yes or no findings as the source states them, for the method shown.

Target: human recombinant Hsp90α (human) (UniProt P07900)
Experiment: SPR; competition; Hsp90 (1 μM) preincubated with peptide (1.4, 14, 140, 280, 700 μM, 1 mM) passed over immobilised TPR2A domain of Hop (5000 RU, CM5 chip); signal without peptide = 100% binding; 25°C, HBS-EP buffer pH 7.4; both purified

## RKFSAAIGYNKY [TPR scramble peptide (…)]
  binding: no binding (tested: up to millimolar concentrations (1 mM))
